# Inconclusive results, whose numbers are uncertain, are shown with a selection of clear calls. Potencies beside an inconclusive call are fits to weak or partial responses and may not hold up. Activity calls are given as the source filed them. Calls come from the whole dose curve; as a rule, active = well fitted cell-killing curve with a large enough effect; inconclusive = small, poorly fitted or top-dose-only effect, or effect the other way; inactive = no such curve, though single readings can be large or run the other way. Bridge positions count the residues as written; N and C are the ends. Where a SMILES comes first, the peptide text is derived from it. Square brackets hold non-standard residues; d marks the D form. Peptide text beside a SMILES is read from it. [ ]: non-standard residue; d: D form. The star is where a group is joined. * marks the point of attachment. ξ: configuration not given here. Sta = CC(C)C[C@H](N)[C@@H](O)CC(=O)O; Octanoyl(6-Me) = CCC(C)CCCCC(=O)*; ξThr(3R) = C[C@@H](O)C(N)C(=O)O; Isovaleryl = CC(C)CC(=O)*; dDab = NCC[C@@H](N)C(=O)O; Dab = NCC[C@H](N)C(=O)O
# Test: Quantitative High-Throughput drug screen in 47 multiple myeloma cell lines against the NCATS MIPE library collection: KMS20_JCRB cell viability assay (AID 1918973); note: nearly all actives have a fitted effect of over 45% in size
# Settings: CellTiter-Glo ATP, 48 h; viability (% of DMSO): at 45.8 µM (top of the series)
# Description: PI: Beverly A. Mock Ph.D.
# Laboratory of Cancer Biology and Genetics,
# Center for Cancer Research, National Cancer Institute,
# National Institute of Health, Bethesda, Maryland
# Drug resistance and disease progression are common in multiple myeloma (MM) patients, underscoring the need for new therapeutic combinations. […] We hypothesized that effective combinations would reduce MYC expression and enhance p16 activity. […] These preclinical data identify potentially useful drug combinations for evaluation in drug-resistant MM and reveal potential mechanisms of combined drug sensitivity.
# Described herein is the primary MIPE qHTS used to cherrypick compounds. Validated compounds were then further tested for potential synergistic activiy.
# [1] Peat TJ, Gaikwad SM, Dubois W, Gyabaah-Kessie N, Zhang S, Gorjifard S, Phyo Z, Andres M, Hughitt VK, Simpson RM, Miller MA, Girvin AT, Taylor A, Williams D, D'Antonio N, Zhang Y, Rajagopalan A, Flietner E, Wilson K, Zhang X, Shinn P, Klumpp-Thomas C, McKnight C, Itkin Z, Chen L, Kazandijian D, Zhang J, Michalowski AM, Simmons JK, Keats J, Thomas CJ, Mock BA. Drug combinations identified by high-throughput screening promote cell cycle transition and upregulate Smad pathways in myeloma. Cancer Lett. 2023 Aug 1;568:216284. doi: 10.1016/j.canlet.2023.216284. Epub 2023 Jun 24. PMID: 37356470; PMCID: PMC10408729.
# SEQUENCE No. (e.g., 1, 2, 3, etc.); […] (e.g., Cells, Incubation, Reagent, etc.); VALUE and DESCRIPTION.
# 1; Cells; 5 uL; white, solid bottom 1536-well Greiner assay plate.
# 2; Compounds; 23 nL; Kalypsis pin tool (Wako USA) equipped with a 1536-well pin head to transfer to the assay plates.
# 3; Incubation; 48 hours; 37C incubation.
# 4; Reagent;5uL; CellTiter Glo (Promega).
# 5; Detector; 425V; Luminescence; Viewlux PerkinElmer.
# NOTES (numbers refer to Sequence numbers above)
# 1. The cell-based screening methods employed in this study were like those previously published. Briefly, the corresponding myeloma cell lines were screened in 1,536-well plates with 500 cells, 5-uL per well for inhibition of cell viability (assessed by measuring ATP levels with CellTiterGlo).
# 2. NCATS MIPE 4.0 library of approved and investigational drugs were added using the Kalypsis pin tool. Wells treated with DMSO only for 100% viability and media only wells for 0% viability were used as controls.
# 3. The assay plates were covered and incubated for 48 hours in a 37C, 5% CO2 incubator with controlled humidity.
# 4. After 48 hours, CellTilter-GloTM luminescent substrate mix (Promega) reagent was added to the assay plate and plates we incubated for 5 min at room temperature.
# 5. Signal was measured as median relative luminescence units on a ViewLux (PerkinElmer) multiplate reader.
# [1] Heske CM, Davis MI, Baumgart JT, Wilson K, Gormally MV, Chen L, Zhang X, Ceribelli M, Duveau DY, Guha R, Ferrer M, Arnaldez FI, Ji J, Tran HL, Zhang Y, Mendoza A, Helman LJ, Thomas CJ. Matrix Screen Identifies Synergistic Combination of PARP Inhibitors and Nicotinamide Phosphoribosyltransferase (NAMPT) Inhibitors in Ewing Sarcoma. Clin Cancer Res. 2017 Dec 1;23(23):7301-7311. doi: 10.1158/1078-0432.CCR-17-1121. Epub 2017 Sep 12. PMID: 28899971; PMCID: PMC6636827.
# Potency is the fitted concentration of half-maximal effect.
SMILES,Potency,viability (% of DMSO)
Cc1ncc([N+](=O)[O-])n1CC(C)O (stereo not given),"inconclusive: 26.4 µM [cytotoxic, single point]",–
CCCc1cc(=O)[nH]c(=S)[nH]1,"inconclusive: 2.64 µM [cytotoxic, partial curve, poor fit]",–
O=C(Nc1c(Cl)cncc1Cl)c1ccc(OC(F)F)c(OCC2CC2)c1,"inconclusive: 0.264 µM [rising, full curve, poor fit]",–
OCCN(CCO)c1nc(N2CCCCC2)c2nc(N(CCO)CCO)nc(N3CCCCC3)c2n1,"inconclusive: 29.6 µM [cytotoxic, single point]",–
Clc1ccc(-c2nc3sccn3c2C=NOCc2ccc(Cl)c(Cl)c2)cc1,"inconclusive: 10.5 µM [cytotoxic, partial curve, poor fit]",–
Nc1nc(-c2nn(Cc3ccccc3F)c3ncccc23)nc(N)c1N1CCOCC1,"inconclusive: 14.8 µM [cytotoxic, partial curve, poor fit]",–
Nc1ncnc2c1ncn2[C@@H]1O[C@H](CO)C[C@@H]1O,–,inactive: 94.2%
O=C1Nc2ccc(Cl)cc2C(C#CC2CC2)(C(F)(F)F)O1 (stereo not given),active: 20.9 µM,–
O=C(OCC#CCSc1nnc(-c2cccc3ccccc23)o1)c1cc2ccccc2s1,"inconclusive: 1.48 µM [cytotoxic, full curve, poor fit]",–
Cc1cc(=O)oc2cc(O)ccc12,–,inactive: 99.8%
Cc1cc(-c2ccc(CC(=O)Nc3ccc(-c4cccnc4)cc3)cc2)ccn1,"inconclusive: 2.64 µM [cytotoxic, partial curve, poor fit]",–
CN1C(C(=O)Nc2ccccn2)=C(O)c2ccccc2S1(=O)=O,"inconclusive: 0.0332 µM [rising, full curve, poor fit]",–
N#Cc1ccc(C(c2ccc(C#N)cc2)n2cncn2)cc1,–,inactive: 85.6%
CCn1cc(C(=O)O)c(=O)c2cc(F)c(N3CCNCC3)nc21,–,inactive: 98.5%
CNC(=O)c1cc(Oc2ccc(NC(=O)Nc3ccc(Cl)c(C(F)(F)F)c3)c(F)c2)ccn1,"inconclusive: 29.6 µM [cytotoxic, single point]",–
Cc1cn([C@@H]2C[C@@H](O)[C@H](CO)O2)c(=O)[nH]c1=O,"inconclusive: 0.0066 µM [cytotoxic, full curve, poor fit]",–
O=C(O)C(O)Cc1ccc(O)c(O)c1 (stereo not given),"inconclusive: 9.35 µM [cytotoxic, partial curve, poor fit]",–
O=c1[nH]c(=O)n([C@H]2C[C@@H](O)[C@@H](CO)O2)cc1F,"inconclusive: 33.2 µM [cytotoxic, partial curve, poor fit]",–
Cc1cccc(Nc2ccncc2S(=O)(=O)NC(=O)NC(C)C)c1,"inconclusive: 0.418 µM [cytotoxic, full curve, poor fit]",–
CC(=O)OCC(=O)[C@@]12N=C(C)O[C@H]1C[C@H]1[C@@H]3CCC4=CC(=O)C=C[C@]4(C)[C@@H]3[C@@H](O)C[C@@]12C,"inconclusive: 3.32 µM [cytotoxic, full curve, poor fit]",–

SMILES,Potency,viability (% of DMSO)
CC(C)C[C@H](CC(=O)O)C(=O)N[C@@H](Cc1c[nH]c2ccccc12)C(=O)N[C@@H](C)c1ccccc1,–,inactive: 115%
CCOc1cc(CC(=O)N[C@@H](CC(C)C)c2ccccc2N2CCCCC2)ccc1C(=O)O,active: 0.59 µM,–
S=c1nc[nH]c2nc[nH]c12,"inconclusive: 0.0019 µM [rising, full curve, poor fit]",–
CC(CCc1ccc(O)cc1)NCCc1ccc(O)c(O)c1 (stereo not given),–,inactive: 67.9%
O=C(O)C=Cc1ccc(Cn2ccnc2)cc1,"inconclusive: 1.05 µM [cytotoxic, full curve, poor fit]",–
CC(C)C1CCC(C(=O)N[C@H](Cc2ccccc2)C(=O)O)CC1 (stereo not given in full),–,inactive: 113%
COc1ccc(-c2oc3c(CC=C(C)C)c(OC4O[C@H](CO)[C@@H](O)[C@H](O)[C@@H]4O)cc(O)c3c(=O)c2OC2O[C@@H](C)[C@H](O)[C@@H](O)[C@@H]2O)cc1 (stereo not given in full),"inconclusive: 18.7 µM [cytotoxic, partial curve, poor fit]",–
CNC(=O)c1ccc2cc(C3(O)CCn4cncc43)ccc2c1 (stereo not given),–,inactive: 82.6%
CCC(C)CCCCC(=O)N[C@@H](CCN)C(=O)NC(C(=O)N[C@H](CCN)C(=O)N[C@@H]1CCNC(=O)C([C@@H](C)O)NC(=O)[C@@H](CCN)NC(=O)[C@@H](CCN)NC(=O)[C@@H](CC(C)C)NC(=O)[C@H](Cc2ccccc2)NC(=O)[C@H](CCN)NC1=O)[C@@H](C)O (stereo partly drawn) ({Octanoyl(6-Me)}-[Dab][ξThr(3R)][dDab][dDab][Dab]F[dL][dDab][dDab][ξThr(3R)]; lactam 4-C),–,inactive: 106%
CN(C)CC[C@H](CSc1ccccc1)Nc1ccc(S(=O)(=O)NC(=O)c2ccc(N3CCN(Cc4ccccc4-c4ccc(Cl)cc4)CC3)cc2)cc1[N+](=O)[O-],"inconclusive: 3.32 µM [cytotoxic, partial curve, poor fit]",–
CO[C@H]1C[C@@H]2CC[C@@H](C)[C@@](O)(O2)C(=O)C(=O)N2CCCC[C@@H]2C(=O)O[C@H]([C@H](C)C[C@@H]2CC[C@H](OC(=O)C(C)(CO)CO)[C@H](OC)C2)CC(=O)[C@H](C)C=C(C)[C@@H](O)[C@@H](OC)C(=O)[C@H](C)C[C@H](C)C=CC=CC=C1C,active: 11.8 µM,–
COc1cc([C@@H]2c3cc4c(cc3[C@H](O)[C@H]3COC(=O)[C@H]23)OCO4)cc(OC)c1OC,"inconclusive: 0.0026 µM [cytotoxic, full curve]",–
c1ccc2c(-c3cnn4cc(-c5ccc(N6CCNCC6)cc5)cnc34)ccnc2c1,"inconclusive: 0.526 µM [cytotoxic, full curve, poor fit]",–
Cc1ccc(C(=O)c2cc(O)c(O)c([N+](=O)[O-])c2)cc1,active: 20.9 µM,–
NS(=O)(=O)c1ccc(NC2=CC(=O)c3ccccc3C2=O)cc1,"inconclusive: 0.0418 µM [cytotoxic, full curve, poor fit]",–
CCC(C)n1ncn(-c2ccc(N3CCN(c4ccc(OC[C@H]5CO[C@](Cn6cncn6)(c6ccc(Cl)cc6Cl)O5)cc4)CC3)cc2)c1=O (stereo not given in full),"inconclusive: 0.0033 µM [cytotoxic, full curve, poor fit]",–
COC1CCC(N(C(=O)C2CCC(C)CC2)c2cc(C3=CCCCC3)sc2C(=O)O)CC1 (stereo not given),–,inactive: 90.6%
C1Cc2[nH]nc(-c3nn[nH]n3)c2C1,"inconclusive: 37.2 µM [cytotoxic, partial curve, poor fit]",–
COc1ccc(CC2SC(=O)NC2=O)cc1C(=O)NCc1ccc(C(F)(F)F)cc1 (stereo not given),"inconclusive: 4.69 µM [cytotoxic, partial curve, poor fit]",–
CC(C)CC(=O)N[C@H](C(=O)N[C@H](C(=O)N[C@@H](CC(C)C)[C@@H](O)CC(=O)N[C@@H](C)C(=O)N[C@@H](CC(C)C)[C@@H](O)CC(=O)O)C(C)C)C(C)C (Isovaleryl-VV[Sta]A[Sta]-OH),–,inactive: 82.7%

# Not a retest: an excerpt of the list.
SMILES,Potency,viability (% of DMSO)
COC1CCC(N(C(=O)C2CCC(C)CC2)c2cc(C3=CCCCC3)sc2C(=O)O)CC1 (stereo not given),–,inactive: 90.6%
C1Cc2[nH]nc(-c3nn[nH]n3)c2C1,"inconclusive: 37.2 µM [cytotoxic, partial curve, poor fit]",–

# From PubChem BioAssay (NCATS)
